Measurements taken from PubChem BioAssay AID296 (DTP/NCI, 2004).
The list is a part of this screen's results and no random one: it is rich in T/C values a quarter to a half above the control, in often repeated tests (any T/C) and in doses without a T/C. Further doses and runs are listed elsewhere. T/C gives the treated animals as a percentage of the vehicle group. Schedules are NCI's codes, read here as Q, the interval in days (D) or hours (H), X, the number of doses. Some doses were run more than once; their values stand side by side, smallest first. Some T/C values are followed by the survivors on the day toxicity was checked, most often the fifth; without a count, all were alive then. Some values lie below zero, which means that the treated tumours became smaller. Some entries give survivors of the animals treated and no T/C: the source holds a T/C of zero for them, seemingly a mark for toxic or unscored doses. Survivors were counted at the toxicity check, usually on the fifth day, unless a day is given; later deaths do not show.

System: MX-1 breast xenograft, nude mice, tumor weight T/C
Experiment: NCI In Vivo Anticancer Drug Screen. Data for tumor model Human Mammary Carcinoma MX-1 Xenograft (intrarenal inoculation) in NU/NU Swiss (nude) mice
Settings: T/C endpoint: mean tumor weight change, higher T/C = larger tumour; for T/C: evaluated on day 11
Method in brief: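 Compound dosed to mice with transplantable tumor; vehicle group as control. Endpoint survival or tumour size, reported as T/C.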

[1] = dose: 37.5 mg/kg/injection, schedule: Q04DX003 (sc), vehicle: Klucel (hydroxypropylcellulose) (HPC)
[2] = dose: 150.0 mg/kg/injection, schedule: Q04DX003 (sc), vehicle: Klucel (hydroxypropylcellulose) (HPC)
[3] = dose: 300.0 mg/kg/injection, schedule: Q04DX003 (sc), vehicle: Klucel (hydroxypropylcellulose) (HPC)
[4] = dose: 600.0 mg/kg/injection, schedule: Q04DX003 (sc), vehicle: saline with Tween-80
[5] = dose: 600.0 mg/kg/injection, schedule: Q04DX003 (sc), vehicle: suspension in saline
[6] = dose: 40.0 mg/kg/injection, schedule: Q04DX003 (sc), vehicle: saline
[7] = dose: 1200.0 mg/kg/injection, schedule: Q04DX003 (sc), vehicle: saline with Tween-80

Question: What does the source list for `Nc1ncnc2c1nnn2C1OC(CO)C(O)C1O` (centres undefined)?
Answer: T/C [1]: 39, 49, 72, 76 % of control; T/C (dose: 75.0 mg/kg/injection, schedule: Q04DX003 (sc), vehicle: Klucel (hydroxypropylcellulose) (HPC)): 14, 23, 46, 97 % of control; T/C [2]: -49 [4 of 6 alive on day 11], -38 [4 of 6 alive on day 11], 1 [5 of 6 alive on day 11], 4 % of control [4 of 5 alive on day 11]; survivor count [3]: 2 of 6 on day 11 and 3 of 6 on day 11

Question: How did the survivor count (dose: 800.0 mg/kg/injection, schedule: Q04DX003 (sc), vehicle: Klucel (hydroxypropylcellulose) (HPC)) turn out when `CCNC(=O)[B-][N+](C)(C)C` was run?
Answer: 0 of 6 on day 11

Question: How did the survivor count [2] turn out when `COc1cc2cc[n+](C)c(Cc3ccccc3)c2cc1OC` was run?
Answer: 0 of 6 on day 11

Question: Which survivor count [4] does the source give for `CN=C(N)N/N=C(\C)c1ccc2oc3ccc(/C(C)=N/NC(N)=NC)cc3c2c1` here?
Answer: 3 of 6 on day 11

Question: For `NC(=O)/C=C/c1c[nH]c2nccnc12`, which T/C (dose: 100.0 mg/kg/injection, schedule: Q04DX003 (sc), vehicle: water) is on record?
Answer: 138 % of control

Question: What about the survivor count (dose: 200.0 mg/kg/injection, schedule: Q04DX003 (sc), vehicle: water) of the same molecule?
Answer: 3 of 6 on day 11

Question: With `CCCC(=O)Oc1ccc(/C=N/NC(N)=S)nc1` as the molecule, how does the survivor count (dose: 400.0 mg/kg/injection, schedule: Q01DX010 (sc), vehicle: saline with Tween-80) read?
Answer: 0 of 3 on day 11

Question: `CC[C@@]1(O)C[C@H](OC2CC(N(C)C)C(OC3CC(O)C(OC4CCC(=O)C(C)O4)C(C)O3)C(C)O2)c2c(cc3c(c2O)C(=O)c2c(O)cccc2C3=O)[C@H]1C(=O)OC` (some centres undefined) was tested. Which T/C (dose: 0.5 mg/kg/injection, schedule: Q01DX010 (sc), vehicle: water) did it give?
Answer: 128 % of control

Question: And the T/C (dose: 1.0 mg/kg/injection, schedule: Q01DX010 (sc), vehicle: water)?
Answer: 140 % of control

Question: What about the survivor count (dose: 4.0 mg/kg/injection, schedule: Q01DX010 (ip), vehicle: water) of the same molecule?
Answer: 0 of 3 on day 11

Question: What about the survivor count (dose: 8.0 mg/kg/injection, schedule: Q01DX010 (ip), vehicle: water) of the same molecule?
Answer: 0 of 3 on day 11

Question: Which results are given for `O=CC(=O)c1ccc(O)cc1`?
Answer: survivor count (dose: 600.0 mg/kg/injection, schedule: Q04DX003 (sc), vehicle: saline): 3 of 6 on day 11; survivor count (dose: 1200.0 mg/kg/injection, schedule: Q04DX003 (sc), vehicle: saline): 0 of 6 on day 11

Question: With `CC(=O)[O][Pb]([O]C(C)=O)([c]1ccccc1)[c]1ccccc1` as the molecule, how does the T/C (dose: 100.0 mg/kg/injection, schedule: Q01DX010 (sc), vehicle: Klucel (hydroxypropylcellulose) (HPC)) read?
Answer: 125 % of control

Question: With `CC1(C)CC1(Br)Br` as the molecule, how does the T/C (dose: 50.0 mg/kg/injection, schedule: Q01DX010 (sc), vehicle: saline with Tween-80) read?
Answer: 125 % of control

Question: What does the source list for `CCCCCCCCCCCCCCCC(=O)Nc1ccn(C2OC(CO)C(O)C2O)c(=O)n1` (centres undefined)?
Answer: survivor count (dose: 600.0 mg/kg/injection, schedule: Q04DX003 (sc), vehicle: water): 3 of 6 on day 11; survivor count (dose: 1200.0 mg/kg/injection, schedule: Q04DX003 (sc), vehicle: water): 0 of 6 on day 11; survivor count (dose: 2400.0 mg/kg/injection, schedule: Q04DX003 (sc), vehicle: water): 0 of 6 on day 11

Question: Which survivor count (dose: 400.0 mg/kg/injection, schedule: Q01DX010 (sc), vehicle: suspension in saline) does the source give for `Nc1ccn([C@@H](C=O)O[C@@H](C=O)CO)c(=O)n1` here?
Answer: 0 of 3 on day 11

Question: What about the survivor count (dose: 800.0 mg/kg/injection, schedule: Q01DX010 (sc), vehicle: suspension in saline) of the same molecule?
Answer: 0 of 3 on day 11

Question: For `COC1C(/C=C/C(C)=O)OC2OC(C)(C)OC21` (centres undefined), which T/C [5] is on record?
Answer: 133 % of control [5 of 6 alive on day 11]

Question: And the survivor count (dose: 2400.0 mg/kg/injection, schedule: Q04DX003 (sc), vehicle: suspension in saline)?
Answer: 0 of 3 on day 11

Question: Which results are given for `CC(=O)C[n+]1ccc(C)cc1Sc1ccccc1C`?
Answer: survivor count (dose: 150.0 mg/kg/injection, schedule: Q04DX003 (ip), vehicle: saline with Tween-80): 2 of 6 on day 11; survivor count (dose: 300.0 mg/kg/injection, schedule: Q04DX003 (ip), vehicle: saline with Tween-80): 1 of 6 on day 11; survivor count (dose: 600.0 mg/kg/injection, schedule: Q04DX003 (ip), vehicle: saline with Tween-80): 0 of 6 on day 11; survivor count (dose: 1200.0 mg/kg/injection, schedule: Q04DX003 (ip), vehicle: saline with Tween-80): 0 of 6 on day 11

Question: Which survivor count [6] does the source give for `c1ccc([P+](c2ccccc2)(c2ccccc2)c2ccccc2)cc1` here?
Answer: 0 of 6 on day 11

Question: Which T/C (dose: 800.0 mg/kg/injection, schedule: Q01DX010 (sc), vehicle: saline) does the source give for `O=C1OC(C(O)CO)C(O)=C1O` (centres undefined) here?
Answer: 130 % of control

Question: For `C[CH2][Pb]([CH2]C)([CH2]C)[O]C(=O)COc1ccccc1`, which survivor count (dose: 36.0 mg/kg/injection, schedule: Q04DX003 (sc), vehicle: saline with Tween-80) is on record?
Answer: 2 of 6 on day 11

Question: For `O=Cc1ccc([N+](=O)[O-])s1`, which survivor count (dose: 200.0 mg/kg/injection, schedule: Q01DX010 (sc), vehicle: saline with Tween-80) is on record?
Answer: 0 of 3 on day 11

Question: How did the survivor count (dose: 2400.0 micrograms/kg/injection, schedule: Q04DX003 (sc), vehicle: distilled water + alcohol) turn out when `CC[C@@H](C)[C@@H]1NC(=O)C(NC(=O)C(CC(C)C)N(C)C(=O)C2CCCN2C(=O)C(C)O)C(C)OC(=O)C(Cc2ccc(OC)cc2)N(C)C(=O)C2CCCN2C(=O)C(CC(C)C)NC(=O)C(C)C(=O)C(C(C)C)OC(=O)C[C@H]1O` (some centres undefined) was run?
Answer: 3 of 6 on day 11

Question: What does the source list for `CS(=O)(=O)Nc1ccc(C(=O)CCN2CCCCCC2)cc1`?
Answer: survivor count [4]: 2 of 6 on day 11; survivor count [7]: 0 of 6 on day 11

Question: With `Cc1nc(C(Cl)(Cl)Cl)[nH]c(=O)c1SCCO` as the molecule, how does the survivor count (dose: 1200.0 mg/kg/injection, schedule: Q04DX003 (ip), vehicle: distilled water + alcohol) read?
Answer: 3 of 6 on day 11

Question: `CC1Oc2cc3c(-c4c(O)cc(O)c5c(O)c6c(cc45)OC(C)C(C)C6=O)c(O)cc(O)c3c(O)c2C(=O)C1C` (centres undefined) was tested. Which survivor count (dose: 18.75 mg/kg/injection, schedule: Q04DX003 (ip), vehicle: suspension in saline) did it give?
Answer: 0 of 6 on day 11

Question: What about the survivor count (dose: 37.5 mg/kg/injection, schedule: Q04DX003 (ip), vehicle: suspension in saline) of the same molecule?
Answer: 0 of 6 on day 11

Question: And the survivor count (dose: 75.0 mg/kg/injection, schedule: Q04DX003 (ip), vehicle: suspension in saline)?
Answer: 0 of 6 on day 11

Question: Which survivor count (dose: 12.0 mg/kg/injection, schedule: Q04DX003 (sc), vehicle: suspension in saline) does the source give for `CCN1/C(=C/C=C/C=C/c2sc3ccccc3[n+]2CC)Sc2ccccc21` here?
Answer: 2 of 6 on day 11

Question: For `O=NN(CCCl)C(=O)NC1[C@H](O)CCC[C@@H]1O` (some centres undefined), which survivor count (dose: 20.0 mg/kg/injection, schedule: Q04DX003 (sc), vehicle: saline) is on record?
Answer: 1 of 5 on day 11

Question: And the survivor count [6]?
Answer: 0 of 3 on day 11 and 0 of 6 on day 11

Question: What about the survivor count (dose: 80.0 mg/kg/injection, schedule: Q04DX003 (sc), vehicle: saline) of the same molecule?
Answer: 0 of 3 on day 11 and 0 of 6 on day 11

Question: What does the source list for `CCC(C(=O)O)C(=O)O.[NH-]CC1CCCC[N-]1.[Pt+2]`?
Answer: survivor count [5]: 0 of 6 on day 11; survivor count (dose: 800.0 mg/kg/injection, schedule: Q04DX003 (sc), vehicle: saline): 0 of 6 on day 11

Question: With `CN(C)CCN1C(=O)c2cccc3cc(N)cc(c23)C1=O` as the molecule, how does the survivor count (dose: 64.0 mg/kg/injection, schedule: Q04DX003 (sc), vehicle: saline with Tween-80) read?
Answer: 1 of 6 on day 11

Question: And the survivor count (dose: 128.0 mg/kg/injection, schedule: Q04DX003 (sc), vehicle: saline with Tween-80)?
Answer: 0 of 6 on day 11

Question: For `O=C1NCC(Br)C(=O)N1` (centres undefined), which T/C (dose: 300.0 mg/kg/injection, schedule: Q04DX003 (sc), vehicle: saline with Tween-80) is on record?
Answer: 125 % of control

Question: And the survivor count [4]?
Answer: 1 of 6 on day 11

Question: What about the survivor count [7] of the same molecule?
Answer: 0 of 6 on day 11

Question: What does the source list for `O=C1C=CC(n2cc(F)c(=O)[nH]c2=O)O1` (centres undefined)?
Answer: T/C [1]: 145 % of control [5 of 6 alive on day 11]; survivor count [2]: 1 of 6 on day 11; survivor count [3]: 0 of 6 on day 11
